{
  "source": "patent US20230355608A1",
  "about": "“TARGETING POLYCYTHEMIA VERA (PV)-INITIATING CELLS BY BLOCKING LEUKOTRIENE BINDING TO THEIR RECEPTORS” (UNIVERSITY OF MASSACHUSETTS, priority 2020, published 2023)",
  "key": {"[1]": {"tested_on": "JAK2V617F-induced PV mice", "conditions": "vs placebo", "experimental": "The bone marrow cells from donor mice, pretreated with 5-fluorouracil (5-FU), were infected with retrovirus containing pMSCV-JAK2V617F-GFP under conditions for the induction of PV as described previously, followed by transplantation of the transduced cells into C57BL/6J recipient mice.\nTo test this hypothesis, bone marrow cells (BM) were collected for FCM analysis after 4 months treatment.\nPV model was induced in mice as follows: Bone marrow cells from 5-FU-treated (200 mg/kg) donor mice were transduced twice with JAK2V617F retrovirus in the presence of IL-3, IL-6, and stem cell factor (SCF). The recipient mice received 1,100 cGy lethal gamma irradiation (given by 2 split 550-cGy doses), followed by 2.0×10^6 cells transplantation via tail vein injection.\nHematopoietic cells were collected from peripheral blood and bone marrow of the PV mice, and red blood cells (RBCs) were eliminated using RBC lysis buffer (pH 7.4). Then the cells were stained with fluorescence-labeled antibodies (Gr−1 for neutrophils, c-kit and Sca−1 for stem cells) and subjected to FACS analysis. These antibodies were purchased from eBioscience Biotechnology. Data were acquired on a FACS Calibur flow cytometric analyzer (Becton Dickinson).\nWater was used as placebo."}},
  "note": "“Also recorded” adds a separate entry of the source.",
  "data": [
    {"smiles": "CC(C)(O)c1ccccc1CC[C@@H](SCC1(CC(=O)[O-])CC1)c1cccc(/C=C/c2ccc3ccc(Cl)cc3n2)c1.[Na+]", "note": "[Montelukast, (R-(E))-1-(((1-(3-(2-(7-Chloro-2-quinolinyl)ethenyl)phenyl)-3-(2-(1-hydroxy-1-methylethyl)phenyl)propyl)thio)methyl)-cyclopropaneacetic acid]", "values": [
      {"measurement": "PV cell infiltration to the spleens", "setting": "[1]; 150 mg/kg once a day by gavage", "value": "less PV cell infiltration to the spleens"},
      {"measurement": "number of PSCs (GFP+Lin-c-Kit+Sca-1+) in BM", "setting": "[1]; after 4 months treatment", "value": "dropped to a much lower level"},
      {"measurement": "percentage of PSCs (GFP+Lin-c-Kit+Sca-1+) in BM", "setting": "[1]; after 4 months treatment", "value": "dropped to a much lower level"},
      {"measurement": "GFP-Lin-c-Kit+Sca-1+ cells in BM", "setting": "[1]; after 4 months treatment, normal stem cells", "value": "did not show a noteworthy difference; also recorded: demonstrates a noteworthy difference"},
      {"measurement": "effect in combination with JAK2 inhibitor compounds", "setting": "JAK2V617F-cell lines", "value": "synergetic effect"}
    ]}
  ]
}
